We go through 2 substances from PMC12552980.

For one test, the target named is T1, FLAG-TCOF1 (UniProt Q13428).
T1 sequence: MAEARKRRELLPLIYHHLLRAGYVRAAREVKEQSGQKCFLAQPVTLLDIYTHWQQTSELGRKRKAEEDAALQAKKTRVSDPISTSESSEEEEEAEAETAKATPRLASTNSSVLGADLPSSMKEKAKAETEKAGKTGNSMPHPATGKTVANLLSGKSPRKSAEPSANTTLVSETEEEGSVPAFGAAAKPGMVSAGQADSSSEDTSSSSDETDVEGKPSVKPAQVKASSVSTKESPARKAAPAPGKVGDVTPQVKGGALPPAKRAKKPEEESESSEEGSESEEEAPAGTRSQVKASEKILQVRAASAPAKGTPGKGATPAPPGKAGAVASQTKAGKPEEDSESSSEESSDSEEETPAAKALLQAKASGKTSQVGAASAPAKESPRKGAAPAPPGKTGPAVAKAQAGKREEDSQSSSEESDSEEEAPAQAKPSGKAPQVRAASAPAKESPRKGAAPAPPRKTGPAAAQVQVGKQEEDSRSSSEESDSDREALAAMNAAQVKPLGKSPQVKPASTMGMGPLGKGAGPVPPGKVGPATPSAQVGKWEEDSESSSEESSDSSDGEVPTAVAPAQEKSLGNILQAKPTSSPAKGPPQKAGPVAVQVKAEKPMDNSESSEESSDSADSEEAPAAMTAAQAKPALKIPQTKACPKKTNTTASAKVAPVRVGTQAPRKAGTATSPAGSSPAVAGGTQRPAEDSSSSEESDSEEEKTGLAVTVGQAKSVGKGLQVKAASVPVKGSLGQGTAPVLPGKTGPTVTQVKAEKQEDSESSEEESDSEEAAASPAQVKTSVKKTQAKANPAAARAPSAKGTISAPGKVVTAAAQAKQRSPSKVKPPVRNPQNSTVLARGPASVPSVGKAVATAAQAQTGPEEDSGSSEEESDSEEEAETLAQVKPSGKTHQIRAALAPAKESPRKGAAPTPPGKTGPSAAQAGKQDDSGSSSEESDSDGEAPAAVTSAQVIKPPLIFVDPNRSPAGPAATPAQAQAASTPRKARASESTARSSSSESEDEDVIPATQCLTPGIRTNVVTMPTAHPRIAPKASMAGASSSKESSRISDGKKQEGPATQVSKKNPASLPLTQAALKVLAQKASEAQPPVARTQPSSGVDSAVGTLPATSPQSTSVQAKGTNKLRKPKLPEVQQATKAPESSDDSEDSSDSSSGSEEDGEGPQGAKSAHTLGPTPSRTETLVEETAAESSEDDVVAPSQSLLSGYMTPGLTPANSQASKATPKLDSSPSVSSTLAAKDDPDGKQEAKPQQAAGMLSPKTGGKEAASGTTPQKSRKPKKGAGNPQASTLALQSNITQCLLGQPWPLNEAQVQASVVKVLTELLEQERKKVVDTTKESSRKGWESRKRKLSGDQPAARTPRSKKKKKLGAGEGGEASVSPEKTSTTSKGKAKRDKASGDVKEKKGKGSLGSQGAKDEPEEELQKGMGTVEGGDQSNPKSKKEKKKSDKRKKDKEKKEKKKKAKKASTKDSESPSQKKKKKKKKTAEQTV
Nature of the test: co-IP; HEK293T cells co-transfected with FLAG-TCOF1 and HA-KRAS; IP with FLAG or HA antibodies, reciprocal.

Test [1] deals with Neuronal nitric oxide synthase (nNOS) (UniProt P29475). Nature of the test: co-IP; lysate of Huh6 cells overexpressing nNOS; IP with nNOS antibodies, blot with KRAS and TCOF1 antibodies; IgG as negative control.
For another test, the target named is T2, TCOF1-C644S (UniProt Q13428).
T2 sequence: T1 sequence with C644S
Put plainly: co-IP; nNOS-overexpressing Huh6 cells after TCOF1 knockout, transfected with TCOF1-WT or TCOF1-C644S; which protein was precipitated is not told.

The target of test [2] is T3, treacle ribosome biogenesis factor 1 (TCOF1) (human (endogenous in Huh6)) (UniProt Q13428).
T3 sequence: T1 sequence
Put plainly: co-IP; endogenous proteins in Huh6 lysate, with or without nNOS overexpression; IP with KRAS or TCOF1 antibodies, blot with the reciprocal antibodies; IgG as negative control.

Changes are numbered by the printed parent chain. These are yes or no findings as the source states them, for the method shown. Binding seen in cells or lysates may run through a third protein. Some binding calls cover weakened binding; strength is not graded here. For some of these results: Tags and fused reporters may be left off the sequences shown.

As for HA-KRAS (from UniProt P01116 1-189), in the test with FLAG-TCOF1, the binding entry is on record as “binds”.

Regarding KRAS (from UniProt P01116 1-189), the results for the binding result (in test [1]; with TCOF1-C644S; in test [2]) were “no binding”, “binds” and “binds”, respectively.
